Source: the supplement of paper PMC12823440, “Inhibitors supercharge kinase turnover through native proteolytic circuits” (Nature, 2025)
Where a name gives a salt, the structure may show the parent alone. The list shows a part of the results. The calls rarely recur for the same compound in another form.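 In K562 cells expressing nanoluciferase-fused kinases, luminescence was recorded at 4 h intervals between 2 and 18 h, normalized as percent of control with DMSO at 100% and a positive control at 0%. A significant (2 sigma) signal drop marks a time point as decreased. The authors' rule for a hit is not shown and takes in more than the number of time points.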

Amino acid sequences for entries named in this document (tags omitted). A change or cut given only in a name is not applied to a line headed by its entry.
UniProt P31749: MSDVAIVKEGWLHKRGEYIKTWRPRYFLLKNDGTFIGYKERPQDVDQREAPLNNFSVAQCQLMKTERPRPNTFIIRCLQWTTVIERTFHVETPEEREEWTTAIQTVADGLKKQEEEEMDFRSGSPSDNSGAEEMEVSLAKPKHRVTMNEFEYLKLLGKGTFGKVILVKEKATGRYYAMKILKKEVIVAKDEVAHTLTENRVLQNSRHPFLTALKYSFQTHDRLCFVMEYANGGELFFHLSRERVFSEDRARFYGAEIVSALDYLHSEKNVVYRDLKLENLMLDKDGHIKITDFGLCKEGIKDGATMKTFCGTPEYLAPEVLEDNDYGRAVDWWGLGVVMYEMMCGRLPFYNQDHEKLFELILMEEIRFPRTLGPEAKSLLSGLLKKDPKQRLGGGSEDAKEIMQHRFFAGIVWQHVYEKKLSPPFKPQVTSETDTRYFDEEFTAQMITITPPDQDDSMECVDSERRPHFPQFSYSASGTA
UniProt P10398: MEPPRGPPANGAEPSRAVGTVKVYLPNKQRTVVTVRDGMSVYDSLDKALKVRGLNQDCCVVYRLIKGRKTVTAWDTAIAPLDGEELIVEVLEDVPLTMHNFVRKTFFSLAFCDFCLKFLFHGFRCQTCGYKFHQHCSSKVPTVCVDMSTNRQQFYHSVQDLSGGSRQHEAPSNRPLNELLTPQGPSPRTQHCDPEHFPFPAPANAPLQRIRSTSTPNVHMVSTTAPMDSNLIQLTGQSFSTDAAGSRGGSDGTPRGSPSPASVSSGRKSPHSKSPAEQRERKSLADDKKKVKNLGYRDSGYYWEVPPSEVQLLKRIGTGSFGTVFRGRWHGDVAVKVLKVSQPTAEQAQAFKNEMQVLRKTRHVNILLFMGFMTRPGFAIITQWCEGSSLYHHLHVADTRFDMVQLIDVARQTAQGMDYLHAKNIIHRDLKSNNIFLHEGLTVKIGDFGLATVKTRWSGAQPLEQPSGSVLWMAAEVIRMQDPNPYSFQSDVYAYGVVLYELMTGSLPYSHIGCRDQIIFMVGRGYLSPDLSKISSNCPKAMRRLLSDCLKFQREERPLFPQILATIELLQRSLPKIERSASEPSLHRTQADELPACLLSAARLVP
UniProt O14965: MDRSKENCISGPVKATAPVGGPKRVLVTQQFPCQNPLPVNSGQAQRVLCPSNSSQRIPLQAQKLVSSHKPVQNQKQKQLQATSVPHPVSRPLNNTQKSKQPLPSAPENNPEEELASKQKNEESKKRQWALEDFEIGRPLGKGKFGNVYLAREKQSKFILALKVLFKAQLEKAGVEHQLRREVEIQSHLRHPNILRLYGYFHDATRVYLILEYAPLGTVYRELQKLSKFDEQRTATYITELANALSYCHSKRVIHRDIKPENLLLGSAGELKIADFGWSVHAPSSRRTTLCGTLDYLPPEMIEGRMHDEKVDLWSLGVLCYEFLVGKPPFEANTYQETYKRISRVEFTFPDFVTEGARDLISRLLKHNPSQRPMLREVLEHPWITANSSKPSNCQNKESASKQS
UniProt Q96GD4, whole entry: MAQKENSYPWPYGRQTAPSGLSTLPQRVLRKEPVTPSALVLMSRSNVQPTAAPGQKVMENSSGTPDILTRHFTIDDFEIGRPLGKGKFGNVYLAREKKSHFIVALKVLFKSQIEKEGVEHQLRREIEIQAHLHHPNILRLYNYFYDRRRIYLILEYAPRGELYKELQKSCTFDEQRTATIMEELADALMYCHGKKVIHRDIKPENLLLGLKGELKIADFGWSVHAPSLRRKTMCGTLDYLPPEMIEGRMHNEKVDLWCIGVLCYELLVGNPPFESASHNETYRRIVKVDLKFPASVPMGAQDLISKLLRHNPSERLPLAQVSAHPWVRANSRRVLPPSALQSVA
UniProt Q9UQB9: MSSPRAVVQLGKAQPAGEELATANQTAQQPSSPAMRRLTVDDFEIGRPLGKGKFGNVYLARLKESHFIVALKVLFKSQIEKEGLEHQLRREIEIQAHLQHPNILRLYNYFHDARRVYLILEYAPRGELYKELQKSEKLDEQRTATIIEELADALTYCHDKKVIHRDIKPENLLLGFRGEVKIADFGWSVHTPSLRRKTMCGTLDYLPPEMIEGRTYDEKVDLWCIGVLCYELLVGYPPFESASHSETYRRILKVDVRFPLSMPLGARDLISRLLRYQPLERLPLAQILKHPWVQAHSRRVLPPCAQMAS
UniProt P51451: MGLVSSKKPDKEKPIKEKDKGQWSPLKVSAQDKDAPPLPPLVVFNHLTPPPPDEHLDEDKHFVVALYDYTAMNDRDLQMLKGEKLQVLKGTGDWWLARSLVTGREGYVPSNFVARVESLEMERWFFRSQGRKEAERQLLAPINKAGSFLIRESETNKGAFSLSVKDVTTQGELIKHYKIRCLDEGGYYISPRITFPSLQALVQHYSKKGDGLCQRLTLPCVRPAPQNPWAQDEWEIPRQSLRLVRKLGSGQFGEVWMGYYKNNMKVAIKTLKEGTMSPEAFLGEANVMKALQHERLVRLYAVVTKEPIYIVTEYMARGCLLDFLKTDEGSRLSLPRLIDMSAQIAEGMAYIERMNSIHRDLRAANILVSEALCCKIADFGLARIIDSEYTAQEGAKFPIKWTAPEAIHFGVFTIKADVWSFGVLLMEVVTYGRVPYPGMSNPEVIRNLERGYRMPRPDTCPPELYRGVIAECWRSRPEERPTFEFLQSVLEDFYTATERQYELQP
UniProt P51813: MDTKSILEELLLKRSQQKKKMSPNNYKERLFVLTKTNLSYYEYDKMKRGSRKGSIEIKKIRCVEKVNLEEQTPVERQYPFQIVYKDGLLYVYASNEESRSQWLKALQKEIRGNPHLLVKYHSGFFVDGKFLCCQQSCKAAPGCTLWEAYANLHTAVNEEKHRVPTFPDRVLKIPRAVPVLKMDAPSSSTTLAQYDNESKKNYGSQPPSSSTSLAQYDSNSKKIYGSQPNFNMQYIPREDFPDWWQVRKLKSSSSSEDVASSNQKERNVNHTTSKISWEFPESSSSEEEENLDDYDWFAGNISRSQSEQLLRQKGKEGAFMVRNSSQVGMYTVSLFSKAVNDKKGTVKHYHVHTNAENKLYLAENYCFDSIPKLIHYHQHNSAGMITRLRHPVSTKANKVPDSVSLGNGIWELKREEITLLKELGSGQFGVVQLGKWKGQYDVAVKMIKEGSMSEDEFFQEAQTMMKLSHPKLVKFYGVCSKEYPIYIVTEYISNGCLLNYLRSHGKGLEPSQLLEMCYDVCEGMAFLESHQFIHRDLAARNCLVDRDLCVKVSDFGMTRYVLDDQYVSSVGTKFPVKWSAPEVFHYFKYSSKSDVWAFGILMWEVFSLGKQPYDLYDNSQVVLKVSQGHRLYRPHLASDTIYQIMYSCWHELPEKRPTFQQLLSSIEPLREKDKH
UniProt Q06187: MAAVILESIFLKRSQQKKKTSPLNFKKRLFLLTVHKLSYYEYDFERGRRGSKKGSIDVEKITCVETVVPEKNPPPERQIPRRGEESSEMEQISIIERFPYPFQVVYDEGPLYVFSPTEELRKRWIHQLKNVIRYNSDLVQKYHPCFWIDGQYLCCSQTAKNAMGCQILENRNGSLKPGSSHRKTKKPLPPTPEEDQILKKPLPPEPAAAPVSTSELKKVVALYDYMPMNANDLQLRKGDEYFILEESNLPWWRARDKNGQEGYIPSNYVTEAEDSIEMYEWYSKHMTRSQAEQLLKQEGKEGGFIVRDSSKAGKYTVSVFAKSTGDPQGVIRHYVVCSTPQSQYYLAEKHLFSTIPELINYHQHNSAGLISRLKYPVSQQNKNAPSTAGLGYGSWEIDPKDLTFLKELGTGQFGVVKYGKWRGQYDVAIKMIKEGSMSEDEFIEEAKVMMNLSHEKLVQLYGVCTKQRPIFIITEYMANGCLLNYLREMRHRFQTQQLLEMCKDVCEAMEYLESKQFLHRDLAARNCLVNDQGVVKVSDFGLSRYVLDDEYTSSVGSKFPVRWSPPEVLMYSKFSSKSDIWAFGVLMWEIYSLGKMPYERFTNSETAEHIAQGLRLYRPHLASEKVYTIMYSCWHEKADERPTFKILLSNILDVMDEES
UniProt Q9UQM7, whole entry: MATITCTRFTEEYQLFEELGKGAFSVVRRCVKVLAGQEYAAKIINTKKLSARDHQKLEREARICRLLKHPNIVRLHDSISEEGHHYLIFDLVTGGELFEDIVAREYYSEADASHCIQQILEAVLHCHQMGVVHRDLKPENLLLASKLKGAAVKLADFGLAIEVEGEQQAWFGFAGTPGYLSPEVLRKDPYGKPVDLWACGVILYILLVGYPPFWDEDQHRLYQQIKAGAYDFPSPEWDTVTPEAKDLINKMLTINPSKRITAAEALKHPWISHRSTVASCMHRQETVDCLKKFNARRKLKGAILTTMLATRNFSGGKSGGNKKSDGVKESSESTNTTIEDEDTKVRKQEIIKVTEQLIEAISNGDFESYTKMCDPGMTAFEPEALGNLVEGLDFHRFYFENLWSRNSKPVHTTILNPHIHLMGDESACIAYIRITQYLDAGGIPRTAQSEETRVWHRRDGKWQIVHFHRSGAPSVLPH
UniProt Q13555: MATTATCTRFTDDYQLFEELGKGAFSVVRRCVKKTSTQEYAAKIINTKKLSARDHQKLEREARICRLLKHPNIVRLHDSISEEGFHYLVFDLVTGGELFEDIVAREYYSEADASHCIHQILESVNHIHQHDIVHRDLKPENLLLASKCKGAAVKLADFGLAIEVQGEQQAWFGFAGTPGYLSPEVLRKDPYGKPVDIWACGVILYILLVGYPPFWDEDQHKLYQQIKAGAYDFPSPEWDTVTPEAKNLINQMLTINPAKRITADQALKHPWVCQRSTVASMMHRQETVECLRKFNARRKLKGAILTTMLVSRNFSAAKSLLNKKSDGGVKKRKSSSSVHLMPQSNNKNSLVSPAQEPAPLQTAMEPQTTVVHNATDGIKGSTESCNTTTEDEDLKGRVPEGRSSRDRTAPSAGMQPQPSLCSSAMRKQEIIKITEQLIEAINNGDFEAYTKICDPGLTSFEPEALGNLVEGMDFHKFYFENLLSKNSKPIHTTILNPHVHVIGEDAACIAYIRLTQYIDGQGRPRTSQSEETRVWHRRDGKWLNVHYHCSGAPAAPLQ
UniProt Q15131: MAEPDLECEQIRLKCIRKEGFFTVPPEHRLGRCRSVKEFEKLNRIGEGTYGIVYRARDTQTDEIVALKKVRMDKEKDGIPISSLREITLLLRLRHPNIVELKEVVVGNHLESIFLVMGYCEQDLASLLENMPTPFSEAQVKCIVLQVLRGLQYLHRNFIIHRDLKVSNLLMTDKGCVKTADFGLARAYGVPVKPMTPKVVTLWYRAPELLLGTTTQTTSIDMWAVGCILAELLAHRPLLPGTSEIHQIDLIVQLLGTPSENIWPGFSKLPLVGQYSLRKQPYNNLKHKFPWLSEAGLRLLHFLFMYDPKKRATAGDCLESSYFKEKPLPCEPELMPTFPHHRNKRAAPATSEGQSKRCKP
UniProt Q00526: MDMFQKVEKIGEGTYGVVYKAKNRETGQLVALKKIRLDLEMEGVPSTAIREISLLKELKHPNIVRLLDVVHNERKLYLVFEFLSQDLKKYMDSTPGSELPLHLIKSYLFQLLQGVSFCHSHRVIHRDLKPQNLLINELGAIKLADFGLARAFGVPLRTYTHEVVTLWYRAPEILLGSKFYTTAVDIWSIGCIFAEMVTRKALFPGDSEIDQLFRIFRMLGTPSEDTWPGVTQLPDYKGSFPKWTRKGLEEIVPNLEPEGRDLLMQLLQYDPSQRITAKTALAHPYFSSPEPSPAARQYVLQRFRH
UniProt Q00535, whole entry, looked up: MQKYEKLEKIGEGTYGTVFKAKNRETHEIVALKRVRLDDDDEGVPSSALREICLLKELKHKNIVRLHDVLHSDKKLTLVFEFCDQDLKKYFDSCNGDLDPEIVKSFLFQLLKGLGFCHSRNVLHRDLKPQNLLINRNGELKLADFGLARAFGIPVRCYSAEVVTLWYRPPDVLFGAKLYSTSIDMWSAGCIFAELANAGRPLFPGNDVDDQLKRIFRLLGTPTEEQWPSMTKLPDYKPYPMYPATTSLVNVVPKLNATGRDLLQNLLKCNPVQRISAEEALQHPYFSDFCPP
UniProt Q00534, whole entry: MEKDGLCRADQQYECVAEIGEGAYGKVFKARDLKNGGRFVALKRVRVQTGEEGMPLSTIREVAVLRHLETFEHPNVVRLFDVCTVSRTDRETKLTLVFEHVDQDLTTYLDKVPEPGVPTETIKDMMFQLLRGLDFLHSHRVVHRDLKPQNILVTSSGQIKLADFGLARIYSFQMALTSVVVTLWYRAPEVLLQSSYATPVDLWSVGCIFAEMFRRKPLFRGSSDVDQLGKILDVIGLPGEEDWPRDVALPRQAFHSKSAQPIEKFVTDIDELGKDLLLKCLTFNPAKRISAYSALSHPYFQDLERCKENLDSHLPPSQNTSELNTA

Key:
Experiment in all cases: kinase-Nluc reporter destabilization hit call (1 = scored as downregulated) (binary); higher = compound decreases kinase abundance
Conditions in all cases: K562; 2-18 h
ABL1 = ABL1 (UniProt P00519)
AKT1 = AKT1 (UniProt P31749)
ALK = ALK (UniProt Q9UM73)
ARAF = ARAF (UniProt P10398)
AURKA = AURKA (UniProt O14965)
AURKB = AURKB (UniProt Q96GD4)
AURKC = AURKC (UniProt Q9UQB9)
BLK = BLK (UniProt P51451)
BMX = BMX (UniProt P51813)
BRAF = BRAF (UniProt P15056)
BRAF_V600E = test system: BRAF_V600E
BTK = BTK (UniProt Q06187)
CAMK2A = CAMK2A (UniProt Q9UQM7)
CAMK2G = CAMK2G (UniProt Q13555)
CDK10 = CDK10 (UniProt Q15131)
CDK2 = CDK2 (UniProt P24941)
CDK3 = CDK3 (UniProt Q00526)
CDK4 = CDK4 (UniProt P11802)
CDK5 = CDK5 (UniProt Q00535)
CDK6 = CDK6 (UniProt Q00534)

Structure (SMILES)	kinase-Nluc reporter destabilization hit call (ABL1)	kinase-Nluc reporter destabilization hit call (AKT1)	kinase-Nluc reporter destabilization hit call (ALK)	kinase-Nluc reporter destabilization hit call (ARAF)	kinase-Nluc reporter destabilization hit call (AURKA)	kinase-Nluc reporter destabilization hit call (AURKB)	kinase-Nluc reporter destabilization hit call (AURKC)	kinase-Nluc reporter destabilization hit call (BLK)	kinase-Nluc reporter destabilization hit call (BMX)	kinase-Nluc reporter destabilization hit call (BRAF)	kinase-Nluc reporter destabilization hit call (BRAF_V600E)	kinase-Nluc reporter destabilization hit call (BTK)	kinase-Nluc reporter destabilization hit call (CAMK2A)	kinase-Nluc reporter destabilization hit call (CAMK2G)	kinase-Nluc reporter destabilization hit call (CDK10)	kinase-Nluc reporter destabilization hit call (CDK2)	kinase-Nluc reporter destabilization hit call (CDK3)	kinase-Nluc reporter destabilization hit call (CDK4)	kinase-Nluc reporter destabilization hit call (CDK5)	kinase-Nluc reporter destabilization hit call (CDK6)
Cc1cccc(-c2[nH]ncc2-c2ccnc3ccccc23)n1 (10 µM)	inactive: 0	inactive: 0	inactive: 0	inactive: 0	inactive: 0	inactive: 0	inactive: 0	inactive: 0	inactive: 0	inactive: 0	inactive: 0	inactive: 0	inactive: 0	inactive: 0	inactive: 0	inactive: 0	inactive: 0	inactive: 0	inactive: 0	inactive: 0
C=CC(=O)N1CCN(C(=O)CNc2cc(I)c(Cl)cc2O)CC1 [K-Ras(G12C) inhibitor 12] (10 µM)	inactive: 0	inactive: 0	inactive: 0	inactive: 0	inactive: 0	inactive: 0	inactive: 0	inactive: 0	inactive: 0	inactive: 0	inactive: 0	inactive: 0	inactive: 0	inactive: 0	inactive: 0	inactive: 0	inactive: 0	inactive: 0	inactive: 0	inactive: 0
CCCCCc1ccc(/C=C/[C@H](O)[C@@H](CO)NC)cc1 [SK1-I (hydrochloride)] (10 µM)	inactive: 0	inactive: 0	inactive: 0	inactive: 0	inactive: 0	inactive: 0	inactive: 0	inactive: 0	inactive: 0	inactive: 0	inactive: 0	inactive: 0	inactive: 0	inactive: 0	inactive: 0	inactive: 0	inactive: 0	inactive: 0	inactive: 0	inactive: 0
c1ccc(Cn2c(-c3ccc(OC[C@H](C4CCNCC4)n4c(-c5ccccc5)nc5ccccc54)cc3)nc3ccccc32)cc1 [Deltarasin] (2.5 µM)	inactive: 0	inactive: 0	inactive: 0	inactive: 0	inactive: 0	inactive: 0	inactive: 0	inactive: 0	inactive: 0	inactive: 0	inactive: 0	inactive: 0	inactive: 0	inactive: 0	inactive: 0	inactive: 0	inactive: 0	inactive: 0	inactive: 0	inactive: 0
N#Cc1ccc(-c2cnc3ccc(-c4ccc(C(=O)N5CCOCC5)cc4)cn23)cc1 (10 µM)	inactive: 0	inactive: 0	inactive: 0	inactive: 0	inactive: 0	inactive: 0	inactive: 0	inactive: 0	inactive: 0	inactive: 0	inactive: 0	inactive: 0	inactive: 0	inactive: 0	inactive: 0	inactive: 0	inactive: 0	inactive: 0	inactive: 0	inactive: 0
CC(C)[C@H](CO)Nc1nc(Nc2cccc(Cl)c2)c2ncn(C(C)C)c2n1 [Purvalanol A] (10 µM)	inactive: 0	inactive: 0	inactive: 0	inactive: 0	inactive: 0	inactive: 0	inactive: 0	inactive: 0	inactive: 0	active: 1	inactive: 0	inactive: 0	inactive: 0	inactive: 0	inactive: 0	inactive: 0	inactive: 0	inactive: 0	inactive: 0	inactive: 0
COc1cc2ncnc(Nc3ccc(O)c(Br)c3)c2cc1OC (10 µM)	inactive: 0	inactive: 0	inactive: 0	inactive: 0	inactive: 0	inactive: 0	inactive: 0	inactive: 0	inactive: 0	inactive: 0	inactive: 0	inactive: 0	inactive: 0	inactive: 0	inactive: 0	inactive: 0	inactive: 0	inactive: 0	inactive: 0	inactive: 0
CC(C)(C)Cc1[nH]nc2c1[C@@](C)(c1ccccc1)C1=C(CC(C)(C)CC1=O)N2 (10 µM)	inactive: 0	inactive: 0	inactive: 0	inactive: 0	inactive: 0	inactive: 0	inactive: 0	inactive: 0	inactive: 0	inactive: 0	inactive: 0	inactive: 0	inactive: 0	inactive: 0	inactive: 0	inactive: 0	inactive: 0	inactive: 0	inactive: 0	inactive: 0
Nc1[nH]nc2nc(-c3ccc(NS(=O)(=O)c4cc(Cl)ccc4Cl)cc3)cnc12 (10 µM)	inactive: 0	inactive: 0	inactive: 0	inactive: 0	inactive: 0	inactive: 0	inactive: 0	inactive: 0	inactive: 0	inactive: 0	inactive: 0	inactive: 0	inactive: 0	inactive: 0	inactive: 0	inactive: 0	inactive: 0	inactive: 0	inactive: 0	inactive: 0

Entries of single compounds, quoted from the list. Values in the order: kinase-Nluc reporter destabilization hit call (ABL1)	kinase-Nluc reporter destabilization hit call (AKT1)	kinase-Nluc reporter destabilization hit call (ALK)	kinase-Nluc reporter destabilization hit call (ARAF)	kinase-Nluc reporter destabilization hit call (AURKA)	kinase-Nluc reporter destabilization hit call (AURKB)	kinase-Nluc reporter destabilization hit call (AURKC)	kinase-Nluc reporter destabilization hit call (BLK)	kinase-Nluc reporter destabilization hit call (BMX)	kinase-Nluc reporter destabilization hit call (BRAF)	kinase-Nluc reporter destabilization hit call (BRAF_V600E)	kinase-Nluc reporter destabilization hit call (BTK)	kinase-Nluc reporter destabilization hit call (CAMK2A)	kinase-Nluc reporter destabilization hit call (CAMK2G)	kinase-Nluc reporter destabilization hit call (CDK10)	kinase-Nluc reporter destabilization hit call (CDK2)	kinase-Nluc reporter destabilization hit call (CDK3)	kinase-Nluc reporter destabilization hit call (CDK4)	kinase-Nluc reporter destabilization hit call (CDK5)	kinase-Nluc reporter destabilization hit call (CDK6)
CC(C)(C)Cc1[nH]nc2c1[C@@](C)(c1ccccc1)C1=C(CC(C)(C)CC1=O)N2 (10 µM) reads inactive: 0	inactive: 0	inactive: 0	inactive: 0	inactive: 0	inactive: 0	inactive: 0	inactive: 0	inactive: 0	inactive: 0	inactive: 0	inactive: 0	inactive: 0	inactive: 0	inactive: 0	inactive: 0	inactive: 0	inactive: 0	inactive: 0	inactive: 0
c1ccc(Cn2c(-c3ccc(OC[C@H](C4CCNCC4)n4c(-c5ccccc5)nc5ccccc54)cc3)nc3ccccc32)cc1 [Deltarasin] (2.5 µM) reads inactive: 0	inactive: 0	inactive: 0	inactive: 0	inactive: 0	inactive: 0	inactive: 0	inactive: 0	inactive: 0	inactive: 0	inactive: 0	inactive: 0	inactive: 0	inactive: 0	inactive: 0	inactive: 0	inactive: 0	inactive: 0	inactive: 0	inactive: 0
